In paper PMC10454111 one finds binding data, which are given here for 2 substances.

These are yes or no findings as the source states them, for the method shown. In cells and extracts the contact can be indirect. For some of these results: Binding can be weak; no strength is given.

For assay [1], the target named is Nluc-OsMKK6u (D69E) (rice (Oryza sativa)) (UniProt Q5QN75). The assay is described as follows: split reporter; firefly luciferase complementation imaging (LCI) in N. benthamiana leaves; Nluc and Cluc fusions co-infiltrated; luminescence at 48 h after infiltration.
The target in assay [2] is Nluc-OsMKK6n (D69Q) (rice (Oryza sativa)) (UniProt Q5QN75). The assay is described as above.
Assay [3] has as its target Nluc-OsMKK6-N (amino acids 1-70 of OsMKK6) (rice (Oryza sativa)) (UniProt Q5QN75). The description is as above.
Assay [4] addresses Nluc-OsMKK6 (rice (Oryza sativa)) (UniProt Q5QN75). Described as above.
Assay [5] has as its target Nluc-OsMKK6-C (amino acids 71-355 of OsMKK6) (rice (Oryza sativa)) (UniProt Q5QN75). The description is as above.
Assay [6] concerns the target Nluc-OsMKK6m (D69N) (rice (Oryza sativa)) (UniProt Q5QN75). Described as above.
Assay [7] addresses GFP-tagged OsMKK6 (35S:OsMKK6-GFP) (rice (Oryza sativa)) (UniProt Q5QN75). Nature of the assay: co-IP; GFP-tagged OsMKK6 or GFP co-expressed with OsMPK4-FLAG in N. benthamiana leaves; lysate (50 mM Tris-HCl pH 7.4, 150 mM NaCl, 1 mM EDTA, 10% glycerol, 1% Triton X-100); anti-GFP magnetic beads; blots with anti-FLAG and anti-GFP.

Take “Cluc-OsMPK4 (from UniProt Q336X9) (enzyme)”: the binding result in assay [1] is reported as “no binding”; in assay [2], “no binding”; in assay [3], “binds”; in assay [4], “binds”; in assay [5], “no binding”; in assay [6], “no binding”.

For “FLAG-tagged OsMPK4 (Ubi:OsMPK4-FLAG) (from UniProt Q336X9) (enzyme)”, the binding entry in assay [7] is “binds”.
